Source: the M2OR odorant receptor database
Only a part is listed here, and it is no random draw. The calls were merged from several studies; some rest on single wells.

Chains of the proteins cited; added tags and fusions are not shown. Lines headed by an entry give the natural chain unless they say otherwise; changes in a name come on top.
UniProt Q8NHA4: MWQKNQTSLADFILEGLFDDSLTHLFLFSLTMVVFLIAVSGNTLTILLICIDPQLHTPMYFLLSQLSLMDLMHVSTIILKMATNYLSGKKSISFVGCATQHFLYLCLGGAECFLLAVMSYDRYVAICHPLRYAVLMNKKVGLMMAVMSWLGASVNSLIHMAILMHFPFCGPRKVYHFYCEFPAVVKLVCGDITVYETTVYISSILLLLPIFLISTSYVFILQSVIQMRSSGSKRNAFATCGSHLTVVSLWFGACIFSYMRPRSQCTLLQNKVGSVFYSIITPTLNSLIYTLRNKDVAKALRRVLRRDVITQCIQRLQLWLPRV
UniProt Q8NGZ0: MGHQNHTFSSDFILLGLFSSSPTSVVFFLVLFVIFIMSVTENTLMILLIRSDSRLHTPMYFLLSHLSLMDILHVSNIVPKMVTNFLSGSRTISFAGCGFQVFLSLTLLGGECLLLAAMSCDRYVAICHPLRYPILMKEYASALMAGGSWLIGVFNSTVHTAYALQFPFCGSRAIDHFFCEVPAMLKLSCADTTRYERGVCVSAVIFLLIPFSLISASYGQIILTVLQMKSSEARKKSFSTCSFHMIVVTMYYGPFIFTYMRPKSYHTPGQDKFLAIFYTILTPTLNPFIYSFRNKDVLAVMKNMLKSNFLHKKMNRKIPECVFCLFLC
UniProt Q8NG84: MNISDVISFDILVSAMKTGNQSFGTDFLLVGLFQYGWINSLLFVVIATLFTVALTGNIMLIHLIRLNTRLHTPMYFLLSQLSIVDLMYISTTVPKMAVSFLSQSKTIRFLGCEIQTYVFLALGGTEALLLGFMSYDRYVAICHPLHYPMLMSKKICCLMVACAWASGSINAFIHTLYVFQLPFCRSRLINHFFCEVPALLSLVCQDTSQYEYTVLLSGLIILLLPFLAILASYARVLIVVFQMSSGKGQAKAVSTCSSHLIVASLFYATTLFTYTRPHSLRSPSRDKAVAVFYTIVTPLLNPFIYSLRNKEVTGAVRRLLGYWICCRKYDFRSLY

How the values were obtained:
Conditions in all cases: stereoisomer not certain
OR2AG1 (Homo sapiens) = biological target: T1, OR2AG1 (Homo sapiens) (UniProt Q9H205)
T1 sequence (whole entry): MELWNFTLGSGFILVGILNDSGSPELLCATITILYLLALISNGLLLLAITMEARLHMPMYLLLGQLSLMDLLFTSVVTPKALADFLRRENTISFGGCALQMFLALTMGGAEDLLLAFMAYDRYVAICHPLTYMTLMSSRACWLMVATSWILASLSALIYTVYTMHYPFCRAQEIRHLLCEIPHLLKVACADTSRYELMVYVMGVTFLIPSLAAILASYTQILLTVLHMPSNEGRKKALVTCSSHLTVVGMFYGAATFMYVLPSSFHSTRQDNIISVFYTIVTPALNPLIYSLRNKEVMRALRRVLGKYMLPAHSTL
Summary of the method: (§1)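 Whether a receptor–molecule pair is responsive (active) rests on the original authors' judgment that its measured signal was statistically different from baseline. Pairs without that judgment are non-responsive (inactive). Sources used varied assay methods, commonly transient luciferase assays in mammalian cell lines.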

OR2AG2 (Homo sapiens) = biological target: T2, OR2AG2 (Homo sapiens) (UniProt A6NM03)
T2 sequence (whole entry): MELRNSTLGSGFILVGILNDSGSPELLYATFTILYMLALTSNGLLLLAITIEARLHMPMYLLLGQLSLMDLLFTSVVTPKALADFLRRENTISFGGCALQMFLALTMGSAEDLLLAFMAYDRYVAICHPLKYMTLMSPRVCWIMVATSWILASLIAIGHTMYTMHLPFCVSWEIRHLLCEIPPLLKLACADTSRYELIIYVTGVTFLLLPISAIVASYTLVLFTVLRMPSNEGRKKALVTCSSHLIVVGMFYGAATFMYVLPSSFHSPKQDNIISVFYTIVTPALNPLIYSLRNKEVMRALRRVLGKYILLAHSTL
Summary of the method: as §1

OR2AP1 (Homo sapiens) = biological target: T3, OR2AP1 (Homo sapiens) (UniProt Q8NGE2)
T3 sequence (whole entry): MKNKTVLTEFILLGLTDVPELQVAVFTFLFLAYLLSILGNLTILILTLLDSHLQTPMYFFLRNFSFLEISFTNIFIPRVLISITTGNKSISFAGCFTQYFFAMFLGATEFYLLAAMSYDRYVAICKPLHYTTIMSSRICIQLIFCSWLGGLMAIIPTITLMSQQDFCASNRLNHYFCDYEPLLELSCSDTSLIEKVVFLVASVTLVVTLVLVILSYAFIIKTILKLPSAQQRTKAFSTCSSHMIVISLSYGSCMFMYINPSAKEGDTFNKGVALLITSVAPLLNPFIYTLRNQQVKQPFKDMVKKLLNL
Summary of the method: as §1

OR2AT4 (Homo sapiens) = biological target: T4, OR2AT4 (Homo sapiens) (UniProt A6NND4)
T4 sequence (whole entry): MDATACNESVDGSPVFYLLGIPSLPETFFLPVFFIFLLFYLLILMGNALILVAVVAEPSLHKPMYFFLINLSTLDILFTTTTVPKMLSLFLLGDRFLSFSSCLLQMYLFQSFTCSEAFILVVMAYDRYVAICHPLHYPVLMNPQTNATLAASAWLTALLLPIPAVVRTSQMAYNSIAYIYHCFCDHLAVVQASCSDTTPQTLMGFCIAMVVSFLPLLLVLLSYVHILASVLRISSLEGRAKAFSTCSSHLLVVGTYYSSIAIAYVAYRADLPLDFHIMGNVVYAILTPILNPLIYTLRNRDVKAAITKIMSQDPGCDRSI
Summary of the method: as §1

OR2B11 (Homo sapiens) = biological target: T5, OR2B11 (Homo sapiens) (UniProt Q5JQS5)
T5 sequence (whole entry): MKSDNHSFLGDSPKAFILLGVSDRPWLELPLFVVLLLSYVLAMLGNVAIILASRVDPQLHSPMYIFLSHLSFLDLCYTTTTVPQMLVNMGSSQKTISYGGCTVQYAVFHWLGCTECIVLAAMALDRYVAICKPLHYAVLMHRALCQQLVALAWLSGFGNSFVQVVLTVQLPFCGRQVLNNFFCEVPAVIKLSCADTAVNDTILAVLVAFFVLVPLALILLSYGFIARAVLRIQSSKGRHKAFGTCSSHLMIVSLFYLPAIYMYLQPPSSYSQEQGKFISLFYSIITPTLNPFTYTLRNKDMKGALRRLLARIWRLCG
Summary of the method: as §1

OR2B2 (Homo sapiens) = biological target: T6, OR2B2 (Homo sapiens) (UniProt Q9GZK3)
T6 sequence (whole entry): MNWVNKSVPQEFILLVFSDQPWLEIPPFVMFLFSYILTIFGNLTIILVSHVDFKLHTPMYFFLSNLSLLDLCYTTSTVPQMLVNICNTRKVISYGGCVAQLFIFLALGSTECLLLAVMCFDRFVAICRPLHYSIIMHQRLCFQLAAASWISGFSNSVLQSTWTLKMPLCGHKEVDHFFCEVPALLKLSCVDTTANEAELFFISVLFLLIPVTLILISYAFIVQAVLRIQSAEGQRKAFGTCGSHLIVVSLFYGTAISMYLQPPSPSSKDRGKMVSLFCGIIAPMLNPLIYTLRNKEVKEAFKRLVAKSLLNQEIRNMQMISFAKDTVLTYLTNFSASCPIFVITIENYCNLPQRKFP
Summary of the method: as §1

OR2B3 (Homo sapiens) = biological target: T7, OR2B3 (Homo sapiens) (UniProt O76000)
T7 sequence (whole entry): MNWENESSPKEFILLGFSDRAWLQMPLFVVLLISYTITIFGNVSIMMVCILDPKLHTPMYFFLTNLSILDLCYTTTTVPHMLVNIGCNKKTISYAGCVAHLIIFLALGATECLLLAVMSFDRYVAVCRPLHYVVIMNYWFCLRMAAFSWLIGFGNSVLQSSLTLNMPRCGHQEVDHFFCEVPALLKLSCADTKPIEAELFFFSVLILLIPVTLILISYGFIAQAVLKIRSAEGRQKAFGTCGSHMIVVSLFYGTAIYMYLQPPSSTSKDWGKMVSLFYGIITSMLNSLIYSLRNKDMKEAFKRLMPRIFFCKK
Summary of the method: as §1

OR2AE1 (Homo sapiens) = OR2AE1 (Homo sapiens) (UniProt Q8NHA4)
Summary of the method: as §1

OR2AJ1 (Homo sapiens) = OR2AJ1 (Homo sapiens) (UniProt Q8NGZ0)
Summary of the method: as §1

OR2AK2 (Homo sapiens) = OR2AK2 (Homo sapiens) (UniProt Q8NG84)
Summary of the method: as §1

Measured: odorant receptor agonist call;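 further: active if original authors judged signal statistically different from baseline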

CC(C)CC(=O)O
inactive: OR2AG1 (Homo sapiens) | OR2AG2 (Homo sapiens) | OR2AP1 (Homo sapiens) | OR2AT4 (Homo sapiens) | OR2B11 (Homo sapiens) | OR2B2 (Homo sapiens) | OR2B3 (Homo sapiens)

C=CC(C)(O)CCC=C(C)C (stereo not given)
inactive: OR2AG1 (Homo sapiens) | OR2AG2 (Homo sapiens) | OR2AP1 (Homo sapiens) | OR2AT4 (Homo sapiens) | OR2B11 (Homo sapiens) | OR2B2 (Homo sapiens) | OR2B3 (Homo sapiens)

CC(C)CCC(=O)O
inactive: OR2AG1 (Homo sapiens) | OR2AG2 (Homo sapiens) | OR2AP1 (Homo sapiens) | OR2AT4 (Homo sapiens) | OR2B11 (Homo sapiens) | OR2B2 (Homo sapiens) | OR2B3 (Homo sapiens)

O=CCc1ccccc1
inactive: OR2AG1 (Homo sapiens) | OR2AG2 (Homo sapiens) | OR2AP1 (Homo sapiens) | OR2AT4 (Homo sapiens) | OR2B11 (Homo sapiens) | OR2B2 (Homo sapiens) | OR2B3 (Homo sapiens)

CC(C)C=O
inactive: OR2AG1 (Homo sapiens) | OR2AG2 (Homo sapiens) | OR2AP1 (Homo sapiens) | OR2AT4 (Homo sapiens) | OR2B11 (Homo sapiens) | OR2B2 (Homo sapiens) | OR2B3 (Homo sapiens)

CC12C=CCC1C1CCC3CC(=O)CCC3(C)C1CC2 (stereo not given)
inactive: OR2AE1 (Homo sapiens) | OR2AG1 (Homo sapiens) | OR2AG2 (Homo sapiens) | OR2AJ1 (Homo sapiens) | OR2AK2 (Homo sapiens) | OR2AP1 (Homo sapiens) | OR2AT4 (Homo sapiens) | OR2B11 (Homo sapiens) | OR2B2 (Homo sapiens) | OR2B3 (Homo sapiens)
